Source: the supplement of paper PMC6078165

Tested on: MDAMB231
Assay: relative JC-1 red fluorescence (viability) vs pre-drug, coculture with fibroblast (fraction); higher = more viable cancer cells
Method: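 JC-1 labelled TNBC cells cocultured 1:1 (1,500 cells each) with CellTrace Violet stained primary or stromal fibroblasts in 384-well plates in FluoroBrite medium, treated with one of 42 anticancer drugs at 0.1, 1, 10 or 100 uM. JC-1 red fluorescence (mitochondrial integrity in cancer cells only) was read by plate reader every 8 h for 72 h. Values are normalised to each well's pre-drug value. The stock of one drug was tenfold lower, so its dose labels may be too high.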

N#Cc1ccc(C(c2ccc(C#N)cc2)n2cncn2)cc1 [Letrozole]
relative JC-1 red fluorescence
Conditions	8 h	16 h	24 h	32 h	40 h	48 h	56 h	64 h	72 h
10 µM, coculture fibroblast: C12385	0.762 ± 0.01	0.761 ± 0.024	0.651 ± 0.06	0.668 ± 0.019	0.613 ± 0.02	0.582 ± 0.03	0.539 ± 0.033	0.525 ± 0.042	0.503 ± 0.05
10 µM, coculture fibroblast: H6013	0.898 ± 0.019	0.848 ± 0.038	0.805 ± 0.048	0.777 ± 0.049	0.727 ± 0.049	0.685 ± 0.041	0.68 ± 0.049	0.665 ± 0.053	0.623 ± 0.051
10 µM, coculture fibroblast: H6019	0.7921 ± 0.0072	0.749 ± 0.0099	0.656 ± 0.031	0.67 ± 0.029	0.625 ± 0.029	0.6 ± 0.039	0.56 ± 0.048	0.543 ± 0.064	0.509 ± 0.072
10 µM, coculture fibroblast: H6076	0.869 ± 0.025	0.781 ± 0.03	0.708 ± 0.018	0.672 ± 0.0074	0.631 ± 0.0078	0.594 ± 0.016	0.56 ± 0.015	0.55 ± 0.018	0.531 ± 0.026
10 µM, coculture fibroblast: H6231	0.906 ± 0.0094	0.8047 ± 0.0044	0.7211 ± 0.004	0.6701 ± 0.0029	0.614 ± 0.013	0.58 ± 0.019	0.536 ± 0.024	0.508 ± 0.029	0.491 ± 0.032
10 µM, coculture fibroblast: HADF	0.8777 ± 0.0014	0.833 ± 0.012	0.783 ± 0.029	0.73 ± 0.036	0.693 ± 0.028	0.633 ± 0.03	0.625 ± 0.022	0.597 ± 0.036	0.549 ± 0.043
10 µM, coculture fibroblast: HCFa	0.904 ± 0.0016	0.854 ± 0.017	0.804 ± 0.0079	0.767 ± 0.008	0.7073 ± 0.0006	0.6422 ± 0.0046	0.61761 ± 0.00043	0.5876 ± 0.001	0.547 ± 0.0086
10 µM, coculture fibroblast: HCPF	0.872 ± 0.039	0.772 ± 0.025	0.6958 ± 0.0047	0.659 ± 0.007	0.598 ± 0.026	0.549 ± 0.04	0.502 ± 0.052	0.473 ± 0.065	0.448 ± 0.073
10 µM, coculture fibroblast: HHSteC	0.8877 ± 0.0029	0.846 ± 0.013	0.795 ± 0.022	0.751 ± 0.016	0.7 ± 0.025	0.654 ± 0.048	0.61 ± 0.048	0.588 ± 0.043	0.545 ± 0.042
10 µM, coculture fibroblast: HMF	0.891 ± 0.04	0.82 ± 0.061	0.774 ± 0.074	0.738 ± 0.088	0.697 ± 0.096	0.658 ± 0.1	0.619 ± 0.094	0.589 ± 0.098	0.57 ± 0.1
10 µM, coculture fibroblast: HPFa	0.9305 ± 0.0064	0.8863 ± 0.0015	0.8163 ± 0.0021	0.7501 ± 0.0071	0.719 ± 0.01	0.6759 ± 1.4e-05	0.6277 ± 0.0043	0.585 ± 0.01	0.5289 ± 0.0024
10 µM, coculture fibroblast: HUF	0.813 ± 0.0099	0.722 ± 0.014	0.7056 ± 0.0042	0.6012 ± 0.0046	0.548 ± 0.0075	0.521 ± 0.0096	0.4759 ± 0.00086	0.475 ± 0.009	0.455 ± 0.0082
10 µM, coculture fibroblast: Hs5	0.888 ± 0.026	0.818 ± 0.025	0.756 ± 0.036	0.704 ± 0.038	0.652 ± 0.028	0.599 ± 0.03	0.558 ± 0.039	0.526 ± 0.027	0.497 ± 0.023
10 µM, coculture fibroblast: Hs27A	0.89 ± 0.023	0.834 ± 0.012	0.789 ± 0.022	0.755 ± 0.025	0.702 ± 0.036	0.627 ± 0.029	0.625 ± 0.047	0.602 ± 0.053	0.559 ± 0.047
10 µM, coculture fibroblast: Hs343T	0.87 ± 0.069	0.77 ± 0.062	0.7 ± 0.047	0.662 ± 0.034	0.602 ± 0.028	0.546 ± 0.016	0.487 ± 0.0085	0.468 ± 0.005	0.43 ± 0.0098
10 µM, coculture fibroblast: WS1	0.7708 ± 0.0035	0.704 ± 0.014	0.678 ± 0.0093	0.588 ± 0.021	0.538 ± 0.033	0.512 ± 0.041	0.468 ± 0.041	0.463 ± 0.048	0.436 ± 0.045
100 µM, coculture fibroblast: C12385	0.7702 ± 0.0065	0.759 ± 0.017	0.65 ± 0.028	0.663 ± 0.0029	0.609 ± 0.023	0.584 ± 0.024	0.554 ± 0.018	0.539 ± 0.021	0.519 ± 0.023
100 µM, coculture fibroblast: H6013	0.9 ± 0.02	0.833 ± 0.015	0.819 ± 0.018	0.8161 ± 0.008	0.782 ± 0.013	0.766 ± 0.021	0.772 ± 0.02	0.749 ± 0.022	0.72 ± 0.022
100 µM, coculture fibroblast: H6019	0.818 ± 0.027	0.756 ± 0.03	0.704 ± 0.071	0.7 ± 0.087	0.679 ± 0.088	0.67 ± 0.088	0.642 ± 0.089	0.633 ± 0.12	0.595 ± 0.12
100 µM, coculture fibroblast: H6076	0.921 ± 0.034	0.852 ± 0.042	0.803 ± 0.048	0.79 ± 0.057	0.758 ± 0.062	0.724 ± 0.067	0.692 ± 0.058	0.673 ± 0.044	0.66 ± 0.038
100 µM, coculture fibroblast: H6231	0.862 ± 0.049	0.895 ± 0.1	0.832 ± 0.12	0.798 ± 0.13	0.763 ± 0.15	0.733 ± 0.15	0.677 ± 0.13	0.661 ± 0.12	0.631 ± 0.12
100 µM, coculture fibroblast: HADF	0.915 ± 0.042	0.894 ± 0.08	0.857 ± 0.076	0.849 ± 0.081	0.823 ± 0.076	0.772 ± 0.074	0.759 ± 0.083	0.743 ± 0.077	0.706 ± 0.069
100 µM, coculture fibroblast: HCFa	0.883 ± 0.035	0.818 ± 0.066	0.795 ± 0.075	0.779 ± 0.066	0.739 ± 0.059	0.724 ± 0.058	0.703 ± 0.052	0.681 ± 0.048	0.647 ± 0.045
100 µM, coculture fibroblast: HCPF	0.906 ± 0.016	0.838 ± 0.014	0.785 ± 0.019	0.786 ± 0.05	0.75 ± 0.098	0.73 ± 0.11	0.7 ± 0.13	0.675 ± 0.14	0.663 ± 0.16
100 µM, coculture fibroblast: HHSteC	0.932 ± 0.037	0.885 ± 0.038	0.867 ± 0.057	0.856 ± 0.059	0.821 ± 0.067	0.803 ± 0.08	0.768 ± 0.072	0.744 ± 0.079	0.712 ± 0.076
100 µM, coculture fibroblast: HMF	0.872 ± 0.13	0.875 ± 0.04	0.806 ± 0.044	0.826 ± 0.03	0.758 ± 0.014	0.785 ± 0.12	0.734 ± 0.087	0.798 ± 0.22	0.754 ± 0.21
100 µM, coculture fibroblast: HPFa	0.956 ± 0.019	0.889 ± 0.011	0.845 ± 0.0021	0.8021 ± 0.00084	0.7741 ± 0.0043	0.7442 ± 0.0017	0.687 ± 0.0068	0.659 ± 0.0069	0.6036 ± 0.0026
100 µM, coculture fibroblast: HUF	0.885 ± 0.016	0.8007 ± 0.0078	0.77794 ± 0.00032	0.689 ± 0.014	0.626 ± 0.0098	0.6017 ± 0.0013	0.5414 ± 0.0043	0.5318 ± 0.0039	0.5091 ± 0.004
100 µM, coculture fibroblast: Hs5	0.909 ± 0.0096	0.842 ± 0.023	0.803 ± 0.028	0.764 ± 0.021	0.716 ± 0.029	0.674 ± 0.034	0.638 ± 0.023	0.619 ± 0.022	0.6 ± 0.027
100 µM, coculture fibroblast: Hs27A	0.9069 ± 0.0032	0.8618 ± 0.0073	0.8285 ± 0.0017	0.805 ± 0.0071	0.753 ± 0.042	0.677 ± 0.022	0.675 ± 0.058	0.646 ± 0.061	0.598 ± 0.052
100 µM, coculture fibroblast: Hs343T	0.9357 ± 0.0017	0.859 ± 0.021	0.811 ± 0.053	0.8 ± 0.061	0.748 ± 0.073	0.707 ± 0.073	0.644 ± 0.089	0.623 ± 0.09	0.594 ± 0.092
100 µM, coculture fibroblast: WS1	0.791 ± 0.023	0.759 ± 0.026	0.67 ± 0.0095	0.672 ± 0.037	0.629 ± 0.045	0.611 ± 0.043	0.562 ± 0.057	0.545 ± 0.059	0.521 ± 0.059

± gives the standard deviation of the averaged measurements. Values are relative to the signal before dosing, not to a vehicle control; the signal also falls without drug.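 Fibroblast labels denote human fibroblasts, mainly primary ones from uterus (C12385, HUF), lung (H6013), bone (Hs27A), adrenal (HADF) and skin (WS1), plus mammary HMF and breast cancer-associated Hs343T. Cancer cells are basal-like or mesenchymal-like triple-negative breast cancer lines. A hit is a response shift exceeding 3x replicate standard deviation. The tissue of the other fibroblasts is not given here.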
